# Source: the supplement of paper PMC8728848
# The list shows a part of the results.
# B1: PX14375A-pdi-503-28-503 (Parabacteroides distasonis) (protein)
# chain: PLGSPEAGDISEERQAFLRLTAVYSVMKDFRYTWSMQCFGDVLSNDATYSGSSNDAQTFTLLENYQYQADHTEILNKYRYSYQCINKANLFIRDMEMADDALFSKYDKEQMIGEAKFIRAYTYFELVKTFGGVPCYTGVLDLDHERLGRASVEEIYSVIEQDLNDAVSVLPKKSEVANYESSYAGRITKGAAIAMQTRIYLYEKKYDEVKKAFEKFQNECGGEYSLVAPEDYTWQFSLDGEHCSSSILEVNMYNSSTQSSYNVNNGNRHVLMSMPRNMTIGFGCAQPTQALADAYDAEGDVIRKKTTLLSTEEAIEIETAAKGDVAPVTDDRTGWYNRKLYLAPGQREENRGNNQPTNLRLIRLAEVYLNYAEACYFSGDIANAQKYLNEVRSHVNLAPKNHTGSQLFEDIMNERHLEFGMEGFRFFDVVRVGWGEKVFNGTKKAEFGAKTPFSAGAEVLPIPQTEIDISDGLITN
# Assays:
# Test in all cases: glycan array binding signal (z-score within array); higher = stronger binding
# Conditions in all cases: glycan notation: IUPAC condensed, linker removed
# [1] = target: Fuc(a1-2)Gal(b1-4)GlcNAc(b1-3)Gal(b1-4)GlcNAc(b1-3)Gal(b1-4)GlcNAc
# Procedure, shortened: (§1)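 The Consortium for Functional Glycomics database supplied 3228 glycan arrays, of which those lacking an available protein sequence were dropped. The binding signal, a within-array Z-score, was averaged across arrays of the same protein sequence and across linkers. Negative scores can be read as non-binding.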
# [2] = target: Fuc(a1-2)Gal(b1-4)GlcNAc(b1-3)GalNAc
# Procedure, shortened: as §1
# [3] = target: Fuc(a1-2)Gal(b1-4)GlcNAc(b1-3)[Fuc(a1-2)Gal(b1-4)GlcNAc(b1-6)]GalNAc
# Procedure, shortened: as §1
# [4] = target: Fuc(a1-2)Gal(b1-4)GlcNAc(b1-3)[Fuc(a1-3)[Gal(b1-4)]GlcNAc(b1-6)]Gal(b1-4)Glc
# Procedure, shortened: as §1
# [5] = target: Fuc(a1-2)Gal(b1-4)GlcNAc(b1-6)GalNAc
# Procedure, shortened: as §1
# [6] = target: Fuc(a1-2)Gal(b1-4)GlcNAc6S
# Procedure, shortened: as §1
# [7] = target: Fuc(a1-2)Gal(b1-4)[Fuc(a1-3)]GlcNAc
# Procedure, shortened: as §1
# [8] = target: Fuc(a1-2)Gal(b1-4)[Fuc(a1-3)]GlcNAc(b1-2)Man(a1-3)[Fuc(a1-2)Gal(b1-4)[Fuc(a1-3)]GlcNAc(b1-2)Man(a1-6)]Man(b1-4)GlcNAc(b1-4)[Fuc(a1-6)]GlcNAc
# Procedure, shortened: as §1
# [9] = target: Fuc(a1-2)Gal(b1-4)[Fuc(a1-3)]GlcNAc(b1-2)[Fuc(a1-2)Gal(b1-4)[Fuc(a1-3)]GlcNAc(b1-4)]Man(a1-3)[Fuc(a1-2)Gal(b1-4)[Fuc(a1-3)]GlcNAc(b1-2)Man(a1-6)]Man(b1-4)GlcNAc(b1-4)GlcNAc
# Procedure, shortened: as §1
# [10] = target: Fuc(a1-2)Gal(b1-4)[Fuc(a1-3)]GlcNAc(b1-3)Gal(b1-4)[Fuc(a1-3)]GlcNAc
# Procedure, shortened: as §1
# [11] = target: Fuc(a1-2)Gal(b1-4)[Fuc(a1-3)]GlcNAc(b1-3)Gal(b1-4)[Fuc(a1-3)]GlcNAc(b1-3)Gal(b1-4)[Fuc(a1-3)]GlcNAc
# Procedure, shortened: as §1
# [12] = target: Fuc(a1-2)Gal(b1-4)[Fuc(a1-3)]GlcNAc(b1-3)GalNAc
# Procedure, shortened: as §1
# [13] = target: Fuc(a1-2)Gal(b1-4)[Fuc(a1-3)]GlcNAc(b1-3)[Neu5Ac(a2-6)Gal(b1-4)GlcNAc(b1-6)]Gal(b1-4)Glc
# Procedure, shortened: as §1
# [14] = target: Fuc(a1-2)Gal3S(b1-4)GlcNAc
# Procedure, shortened: as §1
# [15] = target: Fuc(a1-2)Gal6S(b1-3)GlcNAc
# Procedure, shortened: as §1
# [16] = target: Fuc(a1-2)Gal6S(b1-3)GlcNAc6S
# Procedure, shortened: as §1
# [17] = target: Fuc(a1-2)Gal6S(b1-4)Glc
# Procedure, shortened: as §1
# [18] = target: Fuc(a1-2)Gal6S(b1-4)Glc6S
# Procedure, shortened: as §1
# [19] = target: Fuc(a1-2)[Gal(a1-3)]Gal
# Procedure, shortened: as §1
# [20] = target: Fuc(a1-2)[Gal(a1-3)]Gal(b1-3)GalNAc
# Procedure, shortened: as §1
# [21] = target: Fuc(a1-2)[Gal(a1-3)]Gal(b1-3)GalNAc(b1-3)Gal(a1-4)Gal(b1-4)Glc
# Procedure, shortened: as §1
# [22] = target: Fuc(a1-2)[Gal(a1-3)]Gal(b1-3)GlcNAc
# Procedure, shortened: as §1
# [23] = target: Fuc(a1-2)[Gal(a1-3)]Gal(b1-3)GlcNAc(b1-2)Man(a1-3)[Fuc(a1-2)[Gal(a1-3)]Gal(b1-3)GlcNAc(b1-2)Man(a1-6)]Man(b1-4)GlcNAc(b1-4)GlcNAc
# Procedure, shortened: as §1
# [24] = target: Fuc(a1-2)[Gal(a1-3)]Gal(b1-3)GlcNAc(b1-2)Man(a1-3)[Fuc(a1-2)[Gal(a1-3)]Gal(b1-3)GlcNAc(b1-2)Man(a1-6)]Man(b1-4)GlcNAc(b1-4)[Fuc(a1-6)]GlcNAc
# Procedure, shortened: as §1
# [25] = target: Fuc(a1-2)[Gal(a1-3)]Gal(b1-3)GlcNAc(b1-3)GalNAc
# Procedure, shortened: as §1
# [26] = target: Fuc(a1-2)[Gal(a1-3)]Gal(b1-3)GlcNAc(b1-6)GalNAc
# Procedure, shortened: as §1
# [27] = target: Fuc(a1-2)[Gal(a1-3)]Gal(b1-4)Glc
# Procedure, shortened: as §1
# [28] = target: Fuc(a1-2)[Gal(a1-3)]Gal(b1-4)GlcNAc
# Procedure, shortened: as §1
# [29] = target: Fuc(a1-2)[Gal(a1-3)]Gal(b1-4)GlcNAc(b1-2)Man
# Procedure, shortened: as §1
# [30] = target: Fuc(a1-2)[Gal(a1-3)]Gal(b1-4)GlcNAc(b1-2)Man(a1-3)[Fuc(a1-2)[Gal(a1-3)]Gal(b1-4)GlcNAc(b1-2)Man(a1-6)]Man(b1-4)GlcNAc(b1-4)GlcNAc
# Procedure, shortened: as §1
# [31] = target: Fuc(a1-2)[Gal(a1-3)]Gal(b1-4)GlcNAc(b1-2)Man(a1-3)[Fuc(a1-2)[Gal(a1-3)]Gal(b1-4)GlcNAc(b1-2)Man(a1-6)]Man(b1-4)GlcNAc(b1-4)[Fuc(a1-6)]GlcNAc
# Procedure, shortened: as §1
# [32] = target: Fuc(a1-2)[Gal(a1-3)]Gal(b1-4)GlcNAc(b1-3)GalNAc
# Procedure, shortened: as §1
# [33] = target: Fuc(a1-2)[Gal(a1-3)]Gal(b1-4)GlcNAc(b1-3)[Fuc(a1-2)[Gal(a1-3)]Gal(b1-4)GlcNAc(b1-6)]GalNAc
# Procedure, shortened: as §1
# [34] = target: Fuc(a1-2)[Gal(a1-3)]Gal(b1-4)GlcNAc(b1-6)GalNAc
# Procedure, shortened: as §1
# [35] = target: Fuc(a1-2)[Gal(a1-3)]Gal(b1-4)[Fuc(a1-3)]Glc
# Procedure, shortened: as §1
# [36] = target: Fuc(a1-2)[Gal(a1-3)]Gal(b1-4)[Fuc(a1-3)]GlcNAc
# Procedure, shortened: as §1
# [37] = target: Fuc(a1-2)[Gal(a1-3)]Gal(b1-4)[Fuc(a1-3)]GlcNAc(b1-3)GalNAc
# Procedure, shortened: as §1
binder,measurement,setting,value
B1,glycan array binding signal (z-score),[1],-0.494
same,glycan array binding signal (z-score),[2],0.129
same,glycan array binding signal (z-score),[3],0.433
same,glycan array binding signal (z-score),[4],-0.332
same,glycan array binding signal (z-score),[5],0.828
same,glycan array binding signal (z-score),[6],0.079
same,glycan array binding signal (z-score),[7],-0.378
same,glycan array binding signal (z-score),[8],-0.25
same,glycan array binding signal (z-score),[9],0.5
same,glycan array binding signal (z-score),[10],-0.222
same,glycan array binding signal (z-score),[11],0.506
same,glycan array binding signal (z-score),[12],-0.279
same,glycan array binding signal (z-score),[13],-0.353
same,glycan array binding signal (z-score),[14],0.279
same,glycan array binding signal (z-score),[15],0.183
same,glycan array binding signal (z-score),[16],0.686
same,glycan array binding signal (z-score),[17],-0.427
same,glycan array binding signal (z-score),[18],0.293
same,glycan array binding signal (z-score),[19],0.139
same,glycan array binding signal (z-score),[20],0.34
same,glycan array binding signal (z-score),[21],-0.221
same,glycan array binding signal (z-score),[22],-0.302
same,glycan array binding signal (z-score),[23],-0.83
same,glycan array binding signal (z-score),[24],1.43
same,glycan array binding signal (z-score),[25],-0.75
same,glycan array binding signal (z-score),[26],0.169
same,glycan array binding signal (z-score),[27],0.347
same,glycan array binding signal (z-score),[28],0.356
same,glycan array binding signal (z-score),[29],-0.178
same,glycan array binding signal (z-score),[30],-0.223
same,glycan array binding signal (z-score),[31],-0.461
same,glycan array binding signal (z-score),[32],0.796
same,glycan array binding signal (z-score),[33],-0.023
same,glycan array binding signal (z-score),[34],0.501
same,glycan array binding signal (z-score),[35],0.615
same,glycan array binding signal (z-score),[36],-0.077
same,glycan array binding signal (z-score),[37],-0.044

# 2 successive records from above:
binder,measurement,setting,value
B1,glycan array binding signal (z-score),[28],0.356
same,glycan array binding signal (z-score),[29],-0.178
